Reference: patent US20190275197A1
Results are given in words; binding and its absence hold for the method and conditions named. Some entries that bind do so weakly or less than the wild type.

Sequences of proteins named here, by UniProt entry; tags and fusion partners are left off. A change or cut given only in a name is not applied to a line headed by its entry.
UniProt P02671: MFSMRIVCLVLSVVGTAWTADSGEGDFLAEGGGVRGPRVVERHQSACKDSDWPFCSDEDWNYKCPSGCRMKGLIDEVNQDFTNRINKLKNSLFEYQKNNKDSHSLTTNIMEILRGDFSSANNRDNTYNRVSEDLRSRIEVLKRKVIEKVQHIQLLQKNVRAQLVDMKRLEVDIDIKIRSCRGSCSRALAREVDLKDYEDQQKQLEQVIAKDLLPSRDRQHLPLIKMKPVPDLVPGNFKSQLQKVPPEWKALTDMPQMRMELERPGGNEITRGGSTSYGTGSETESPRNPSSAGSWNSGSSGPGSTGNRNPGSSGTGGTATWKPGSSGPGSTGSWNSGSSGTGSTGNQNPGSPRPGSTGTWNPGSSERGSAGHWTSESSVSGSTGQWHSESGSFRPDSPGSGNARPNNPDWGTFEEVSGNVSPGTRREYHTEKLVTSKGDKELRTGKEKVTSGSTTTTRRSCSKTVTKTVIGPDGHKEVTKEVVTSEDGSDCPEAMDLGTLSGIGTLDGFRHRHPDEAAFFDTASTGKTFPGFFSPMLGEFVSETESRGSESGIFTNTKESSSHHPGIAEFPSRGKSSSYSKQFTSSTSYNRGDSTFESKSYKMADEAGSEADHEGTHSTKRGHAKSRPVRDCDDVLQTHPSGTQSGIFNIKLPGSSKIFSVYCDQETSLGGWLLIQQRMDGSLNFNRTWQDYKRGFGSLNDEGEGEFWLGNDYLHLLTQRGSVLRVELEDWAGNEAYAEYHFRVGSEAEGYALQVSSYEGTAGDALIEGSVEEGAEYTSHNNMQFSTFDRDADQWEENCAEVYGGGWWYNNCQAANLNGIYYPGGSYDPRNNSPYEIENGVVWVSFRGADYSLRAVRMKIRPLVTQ

Target: fibrin matrix (UniProt P02671)
Experiment: retention assay of fibrin matrices, unbound peptide measured by PTH ELISA

B1: TGplPTH1-34 (peptide)
peptide: NQEQVSPLYKNRSVSEIQLMHNLGKHLNSMERVEWLRKKLQDVHNF
  binding: binds
